{"sequences": {"note": "Protein sequences, listed by entry. Tags and fused reporters are not part of them. Residues count along the entry.", "UniProt P02769, 25-607": "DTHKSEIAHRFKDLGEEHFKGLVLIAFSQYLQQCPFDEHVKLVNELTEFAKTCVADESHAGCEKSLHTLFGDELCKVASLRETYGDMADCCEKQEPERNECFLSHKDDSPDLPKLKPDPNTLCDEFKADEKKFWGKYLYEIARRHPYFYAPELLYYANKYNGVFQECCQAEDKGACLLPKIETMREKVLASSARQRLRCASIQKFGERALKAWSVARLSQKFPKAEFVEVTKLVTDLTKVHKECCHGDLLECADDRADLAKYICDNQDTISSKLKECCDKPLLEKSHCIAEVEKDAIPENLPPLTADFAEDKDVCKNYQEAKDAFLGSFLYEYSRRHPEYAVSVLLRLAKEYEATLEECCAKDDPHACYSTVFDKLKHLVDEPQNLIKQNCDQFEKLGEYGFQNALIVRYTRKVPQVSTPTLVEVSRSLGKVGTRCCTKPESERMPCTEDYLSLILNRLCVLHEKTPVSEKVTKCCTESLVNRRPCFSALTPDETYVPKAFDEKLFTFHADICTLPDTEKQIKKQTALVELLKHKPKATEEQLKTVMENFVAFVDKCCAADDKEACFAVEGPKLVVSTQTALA"}, "source": "paper PMC10401710", "key": {"[1]": {"target": "PTK7 (endogenous) (human (Jurkat, HepG2 cells)) (UniProt Q13308)", "assay": "covalent biotin transfer on cells, SA-PE flow cytometry", "settings": "Jurkat and HepG2, >10-fold MFI over PTK7-negative HEK293T; T27 replaced by 5-octadiynyl-dU, clicked to azide-tethered N-acyl sulfonamide biotin electrophile 1; DPBS with 5 mM MgCl2, 4.5 g/L glucose, pH 7.4, 37 C, 1 h (cells: plus 0.1 mg/mL yeast tRNA); read-out is proximity-driven covalent labeling, no equilibrium Kd measured; protein on the cell surface; label: transferable biotin; folded or branched DNA"}, "[2]": {"target": "PTK7 (UniProt Q13308)", "assay": "covalent biotin transfer on cells, streptavidin pulldown and anti-PTK7 immunoblot", "settings": "1 h; T27 replaced by 5-octadiynyl-dU, clicked to azide-tethered N-acyl sulfonamide biotin electrophile 1; DPBS with 5 mM MgCl2, 4.5 g/L glucose, pH 7.4, 37 C, 1 h (cells: plus 0.1 mg/mL yeast tRNA); read-out is proximity-driven covalent labeling, no equilibrium Kd measured; protein on the cell surface; label: transferable biotin; folded or branched DNA"}, "[3]": {"target": "Bovine serum albumin (bovine) (UniProt P02769)", "assay": "covalent biotin transfer, SA-HRP blot", "settings": "off-target labeling only at or above 500 nM aptamer, 1 uM BSA; T27 replaced by 5-octadiynyl-dU, clicked to azide-tethered N-acyl sulfonamide biotin electrophile 1; DPBS with 5 mM MgCl2, 4.5 g/L glucose, pH 7.4, 37 C, 1 h (cells: plus 0.1 mg/mL yeast tRNA); read-out is proximity-driven covalent labeling, no equilibrium Kd measured; commercial protein; label: transferable biotin; folded or branched DNA"}, "[4]": {"target": "T1, PTK7 (recombinant, R&D Biosystems NC2081082) (UniProt Q13308)", "T1 sequence (looked up)": "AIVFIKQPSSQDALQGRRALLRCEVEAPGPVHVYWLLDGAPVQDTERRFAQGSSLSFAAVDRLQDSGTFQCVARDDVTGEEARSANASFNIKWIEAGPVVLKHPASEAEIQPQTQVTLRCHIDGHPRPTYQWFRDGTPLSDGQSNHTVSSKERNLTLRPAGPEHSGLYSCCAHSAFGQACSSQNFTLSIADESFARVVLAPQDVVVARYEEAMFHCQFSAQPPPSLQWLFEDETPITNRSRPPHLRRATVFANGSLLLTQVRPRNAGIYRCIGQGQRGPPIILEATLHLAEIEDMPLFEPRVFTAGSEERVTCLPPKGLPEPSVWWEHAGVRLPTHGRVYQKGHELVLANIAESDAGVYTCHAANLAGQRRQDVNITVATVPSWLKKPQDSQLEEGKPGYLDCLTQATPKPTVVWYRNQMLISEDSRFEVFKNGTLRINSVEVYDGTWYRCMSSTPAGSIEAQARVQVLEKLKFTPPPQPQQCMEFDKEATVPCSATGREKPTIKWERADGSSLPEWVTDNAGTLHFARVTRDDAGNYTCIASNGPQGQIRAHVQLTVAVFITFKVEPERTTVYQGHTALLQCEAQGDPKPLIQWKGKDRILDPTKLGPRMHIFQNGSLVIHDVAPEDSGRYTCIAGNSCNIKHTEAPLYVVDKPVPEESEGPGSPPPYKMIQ", "assay": "covalent biotin transfer, SA-HRP blot", "settings": "among highest labeling efficiencies, 5 mM MgCl2, clicked to azide-tethered N-acyl sulfonamide biotin electrophile 1, DPBS with 5 mM MgCl2, 4.5 g/L glucose, pH 7.4, 37 C, 1 h (cells: plus 0.1 mg/mL yeast tRNA), read-out is proximity-driven covalent labeling, no equilibrium Kd measured, commercial protein, residues 31-703, label: transferable biotin, folded or branched DNA"}}, "note": "For some assays here: Protein sequences can lack the tags named with them. For some assays here: For at least one entry, the source does not settle the construct or the ends of the probe. For some assays here: Weaker means in comparison with the reference protein, sequence or condition of that experiment. For some assays here: Where cells or extracts were used, other partners may take part.", "data": [{"sequence": "ATCTAACTGCTGCGCCGCCGGGAAAATACTGTACGGTTAGA [sgc8c(27)-1]", "values": [{"measurement": "binding result", "setting": "[1]", "result": "binds"}, {"measurement": "binding result", "setting": "[2]", "result": "binds"}, {"measurement": "binding result", "setting": "[3]", "result": "binds more weakly"}]}, {"sequence": "ATCTAACTGCTGCGCCGCCGGGAAAATACTGTACGGTTAGA [sgc8c(8)-1]", "values": [{"measurement": "binding result", "setting": "[4]; T8 replaced by 5-octadiynyl-dU", "result": "binds"}]}, {"sequence": "ATCTAACTGCTGCGCCGCCGGGAAAATACTGTACGGTTAGA [sgc8c(30)-1]", "values": [{"measurement": "binding result", "setting": "[4]; T30 replaced by 5-octadiynyl-dU", "result": "binds"}]}]}
